Values from PubChem BioAssay AID1224827 (NIAID, 2016)
This is an unselected part of about 3,800 reagents tested. In the full data, about 2,200 (57%) got an active call. 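Active means a strong reporter change in either direction; calls are per siRNA, not per gene; qiagen siRNAs gave weaker effects.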 A number with no mark means an inactive call. Further read-outs or replicates are left out here.

Test: 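Confirm genes whose knock-down changes LPS-driven TNF promoter activity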 (follow-up of hits)
Cell system: RAW264.7 G9 mouse macrophage reporter clone
Knock-down reagent: single siRNA against mouse genes, 100 nM siRNA
Duration: siRNA for 2 days, then LPS about 16 h
Conditions: bacterial lipopolysaccharide (LPS), 10 ng/ml, cells fixed after overnight (about 16 h) stimulation
Read-out: 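Imaged nuclear TNF reporter intensity, background removed, scaled per plate and to non-targeting control wells, as z-scores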
Direction: TNF reporter z-score, mean: higher = stronger Tnf promoter reporter signal
Active means: 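An siRNA is called active when its mean z-score over replicates is at least +2 or at most -2; control wells get no call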

no.	gene	PubChem SID	TNF reporter z-score, mean
1	Eif6	SID315484440	3.83 (active)
2	Eif6	SID315484441	-1.73
3	Eif6	SID315484442	-3.14 (active)
4	Srrt	SID315487137	2.57 (active)
5	Srrt	SID315487138	-3.13 (active)
6	Srrt	SID315487139	-3.55 (active)
7	Srrt	SID315487140	-0.162
8	Srrt	SID315487141	-1.95
9	Srrt	SID315487142	-2.01 (active)
10	Or1q1	SID315488661	-1.29
11	Or1q1	SID315488662	-2.91 (active)
12	Or1q1	SID315488663	-4.12 (active)
13	Or1q1	SID315488664	0.662
14	Or1q1	SID315488665	-0.64
15	Or1q1	SID315488666	-1.17
16	Or9m1	SID315488691	4.27 (active)
17	Or9m1	SID315488692	1.43
18	Or9m1	SID315488693	-1.83
19	Or9m1	SID315488694	2.72 (active)
20	Or9m1	SID315488695	2.76 (active)
21	Or9m1	SID315488696	1.73
22	Cryba4	SID315483993	-3.97 (active)
23	Cryba4	SID315483994	-4.48 (active)
24	Cryba4	SID315483995	-4.58 (active)
25	Cryba4	SID315483996	3.82 (active)
26	Cryba4	SID315483997	-1.18
27	Cryba4	SID315483998	-2.64 (active)
28	Mrps10	SID315486273	11.5 (active)
29	Mrps10	SID315486274	-0.445
30	Mrps10	SID315486275	-4.68 (active)
31	Mrps10	SID315486276	2.82 (active)
32	Mrps10	SID315486277	0.226
33	Mrps10	SID315486278	-0.179
34	Fam110a	SID315486759	-2.2 (active)
35	Fam110a	SID315486760	-2.51 (active)
36	Fam110a	SID315486761	-4.52 (active)
37	Fam110a	SID315486762	2.66 (active)
38	Fam110a	SID315486763	0.607
39	Fam110a	SID315486764	-0.078
40	H2-K1	SID315484275	-4.13 (active)
41	H2-K1	SID315484276	-4.82 (active)
42	H2-K1	SID315484277	-5.33 (active)
43	H2-K1	SID315484278	0.0196
44	H2-K1	SID315484279	0.136
45	H2-K1	SID315484280	-2.74 (active)
46	Prdm8	SID315486867	6.98 (active)
47	Prdm8	SID315486868	-0.527
48	Prdm8	SID315486869	-1.92
49	Prdm8	SID315486870	1.24
50	Prdm8	SID315486871	-1.14
51	Prdm8	SID315486872	-2.71 (active)
52	Rps4l	SID315486345	-0.876
53	Rps4l	SID315486346	-1.56
54	Rps4l	SID315486347	-2.59 (active)
55	Rps4l	SID315486348	-0.0138
56	Rps4l	SID315486349	-1.14
57	Rps4l	SID315486350	-3.05 (active)
58	Itga10	SID315488100	9.77 (active)
59	Itga10	SID315488101	0.0535
60	Itga10	SID315488102	-1.75
61	Fbh1	SID315485499	-2.86 (active)
62	Fbh1	SID315485500	-3.4 (active)
63	Fbh1	SID315485501	-4.59 (active)
64	Fbh1	SID315485502	2.64 (active)
65	Fbh1	SID315485503	1.4
66	Fbh1	SID315485504	0.507
67	Phox2a	SID315483771	6.51 (active)
68	Phox2a	SID315483772	0.129
69	Phox2a	SID315483773	-2.05 (active)
70	Phox2a	SID315483774	2.16 (active)
71	Phox2a	SID315483775	1.28
72	Phox2a	SID315483776	-0.727
73	Tnfrsf17	SID315485016	0.467
74	Tnfrsf17	SID315485017	-2.36 (active)
75	Tnfrsf17	SID315485018	-3.99 (active)
76	Tnfrsf17	SID315485019	0.683
77	Tnfrsf17	SID315485020	-0.148
78	Tnfrsf17	SID315485021	-0.947

Single entries from the entries so far:
Result of Or9m1 [SID315488691] in “TNF reporter z-score, mean”: 4.27 (active)
Entry for Or9m1 [SID315488695] in “TNF reporter z-score, mean”: 2.76 (active)
Fam110a [SID315486764], TNF reporter z-score, mean: -0.078
Entry of Fam110a [SID315486763] under “TNF reporter z-score, mean”: 0.607
For “TNF reporter z-score, mean”, Srrt [SID315487137] is entered as 2.57 (active)
Entry for Or1q1 [SID315488661] under “TNF reporter z-score, mean”: -1.29
